# Data reported in the supplement of paper PMC8728848.
# This is one part of the list.
# B1: GS7807I-bvu-563-22-563 (Bacteroides vulgatus) (protein)
# chain: IFSSCTDDFEKLNTSNIQVDPADLPFAAQCTEPMTYCYPPQQNMFQFWTNLTIDLYGGYFMTPNGNFTNGDMGENRGHSGGMYENYYLHIFNNTRRIIAQCDASGERGLSGVMRIVQAYGTLMTTDAYGPIPYSSILSGENEVYFEFDSQKDLYKAMLEDLSTAITDISAMGADEIAKLKSFDCWCNGDKDLWVKIANTMKLRMALRLSKRETEAGNAGMNLKAIATEAAQNTLATVNKDILIDKSLENEMWLMFNWGDCGFNANLVTIMSGTKDPRQPLYMTLNTGDIKNEAGTTTVAANSQYLGIRFASGLPAKPNSWGNFSGWIQGNNGSSYSMPLPIMKAAEAYFLLAEAKLRWDIGSESVKNLYENGIRVSMTNELAYRGAYAGIKEYPEGAVDAYINGTSTQIDYTDPIKAELSTPAVNKLSVKWDESASNEEKLERIITQKWLALFPLSTEGWAEQRRTGYPRFFPAFVNESNGAVNTEEGVRRVIYSSQAYDANAKGVEGGIKLLDEENSSKFGISGDKGGTHLWWDNADKGNF
# Key:
# Experiment in all cases: glycan array binding signal (z-score within array); higher = stronger binding
# Details in all cases: glycan notation: IUPAC condensed, linker removed
# [1] = target: Gal(b1-4)GlcNAc(b1-3)Gal(b1-4)GlcNAc(b1-2)[Gal(b1-4)GlcNAc(b1-3)Gal(b1-4)GlcNAc(b1-6)]Man(a1-6)[Gal(b1-4)GlcNAc(b1-3)Gal(b1-4)GlcNAc(b1-2)Man(a1-3)]Man(b1-4)GlcNAc(b1-4)GlcNAc
# Method in brief: (§1)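 Glycan array data came from 3228 arrays in the Consortium for Functional Glycomics database, and only arrays with an available protein sequence were kept. Glycan names were put into IUPAC-condensed notation, and columns mapping to the same glycan were averaged. The binding signal is a within-array Z-score, averaged across arrays of one protein sequence run at different concentrations or buffers and across linkers. A negative Z-score can be read as non-binding.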
# [2] = target: Gal(b1-4)GlcNAc(b1-3)Gal(b1-4)GlcNAc(b1-2)[Gal(b1-4)GlcNAc(b1-3)Gal(b1-4)GlcNAc(b1-6)]Man(a1-6)[Gal(b1-4)GlcNAc(b1-3)Gal(b1-4)GlcNAc(b1-2)Man(a1-3)]Man(b1-4)GlcNAc(b1-4)[Fuc(a1-6)]GlcNAc
# Method in brief: as §1
# [3] = target: Gal(b1-4)GlcNAc(b1-3)Gal(b1-4)GlcNAc(b1-3)Gal(b1-4)GlcNAc
# Method in brief: as §1
# [4] = target: Gal(b1-4)GlcNAc(b1-3)Gal(b1-4)GlcNAc(b1-3)Gal(b1-4)GlcNAc(b1-2)Man(a1-3)[Gal(b1-4)GlcNAc(b1-3)Gal(b1-4)GlcNAc(b1-3)Gal(b1-4)GlcNAc(b1-2)Man(a1-6)]Man(b1-4)GlcNAc(b1-4)GlcNAc
# Method in brief: as §1
# [5] = target: Gal(b1-4)GlcNAc(b1-3)Gal(b1-4)GlcNAc(b1-3)Gal(b1-4)GlcNAc(b1-2)Man(a1-3)[Gal(b1-4)GlcNAc(b1-3)Gal(b1-4)GlcNAc(b1-3)Gal(b1-4)GlcNAc(b1-2)Man(a1-6)]Man(b1-4)GlcNAc(b1-4)[Fuc(a1-6)]GlcNAc
# Method in brief: as §1
# [6] = target: Gal(b1-4)GlcNAc(b1-3)Gal(b1-4)GlcNAc(b1-3)Gal(b1-4)GlcNAc(b1-2)[Gal(b1-4)GlcNAc(b1-3)Gal(b1-4)GlcNAc(b1-3)Gal(b1-4)GlcNAc(b1-6)]Man(a1-6)[Gal(b1-4)GlcNAc(b1-3)Gal(b1-4)GlcNAc(b1-3)Gal(b1-4)GlcNAc(b1-2)Man(a1-3)]Man(b1-4)GlcNAc(b1-4)[Fuc(a1-6)]GlcNAc
# Method in brief: as §1
# [7] = target: Gal(b1-4)GlcNAc(b1-3)Gal(b1-4)GlcNAc(b1-3)Gal(b1-4)GlcNAc(b1-3)Gal(b1-4)GlcNAc(b1-2)Man(a1-3)[Gal(b1-4)GlcNAc(b1-3)Gal(b1-4)GlcNAc(b1-3)Gal(b1-4)GlcNAc(b1-3)Gal(b1-4)GlcNAc(b1-2)Man(a1-6)]Man(b1-4)GlcNAc(b1-4)GlcNAc
# Method in brief: as §1
# [8] = target: Gal(b1-4)GlcNAc(b1-3)Gal(b1-4)GlcNAc(b1-3)Gal(b1-4)GlcNAc(b1-3)Gal(b1-4)GlcNAc(b1-2)Man(a1-3)[Gal(b1-4)GlcNAc(b1-3)Gal(b1-4)GlcNAc(b1-3)Gal(b1-4)GlcNAc(b1-3)Gal(b1-4)GlcNAc(b1-2)Man(a1-6)]Man(b1-4)GlcNAc(b1-4)[Fuc(a1-6)]GlcNAc
# Method in brief: as §1
# [9] = target: Gal(b1-4)GlcNAc(b1-3)Gal(b1-4)GlcNAc(b1-3)Gal(b1-4)GlcNAc(b1-3)Gal(b1-4)GlcNAc(b1-2)[Gal(b1-4)GlcNAc(b1-3)Gal(b1-4)GlcNAc(b1-3)Gal(b1-4)GlcNAc(b1-3)Gal(b1-4)GlcNAc(b1-6)]Man(a1-6)[Gal(b1-4)GlcNAc(b1-3)Gal(b1-4)GlcNAc(b1-3)Gal(b1-4)GlcNAc(b1-3)Gal(b1-4)GlcNAc(b1-2)Man(a1-3)]Man(b1-4)GlcNAc(b1-4)[Fuc(a1-6)]GlcNAc
# Method in brief: as §1
# [10] = target: Gal(b1-4)GlcNAc(b1-3)Gal(b1-4)GlcNAc(b1-3)Gal(b1-4)GlcNAc(b1-3)Gal(b1-4)GlcNAc(b1-3)Gal(b1-4)GlcNAc(b1-2)Man(a1-3)[Gal(b1-4)GlcNAc(b1-3)Gal(b1-4)GlcNAc(b1-3)Gal(b1-4)GlcNAc(b1-3)Gal(b1-4)GlcNAc(b1-3)Gal(b1-4)GlcNAc(b1-2)Man(a1-6)]Man(b1-4)GlcNAc(b1-4)GlcNAc
# Method in brief: as §1
# [11] = target: Gal(b1-4)GlcNAc(b1-3)Gal(b1-4)GlcNAc(b1-3)Gal(b1-4)GlcNAc(b1-3)Gal(b1-4)GlcNAc(b1-3)Gal(b1-4)GlcNAc(b1-2)Man(a1-3)[Gal(b1-4)GlcNAc(b1-3)Gal(b1-4)GlcNAc(b1-3)Gal(b1-4)GlcNAc(b1-3)Gal(b1-4)GlcNAc(b1-3)Gal(b1-4)GlcNAc(b1-2)Man(a1-6)]Man(b1-4)GlcNAc(b1-4)[Fuc(a1-6)]GlcNAc
# Method in brief: as §1
# [12] = target: Gal(b1-4)GlcNAc(b1-3)Gal(b1-4)GlcNAc(b1-3)Gal(b1-4)GlcNAc(b1-3)Gal(b1-4)GlcNAc(b1-3)Gal(b1-4)GlcNAc(b1-2)[Gal(b1-4)GlcNAc(b1-3)Gal(b1-4)GlcNAc(b1-3)Gal(b1-4)GlcNAc(b1-3)Gal(b1-4)GlcNAc(b1-3)Gal(b1-4)GlcNAc(b1-6)]Man(a1-6)[Gal(b1-4)GlcNAc(b1-3)Gal(b1-4)GlcNAc(b1-3)Gal(b1-4)GlcNAc(b1-3)Gal(b1-4)GlcNAc(b1-3)Gal(b1-4)GlcNAc(b1-2)Man(a1-3)]Man(b1-4)GlcNAc(b1-4)[Fuc(a1-6)]GlcNAc
# Method in brief: as §1
# [13] = target: Gal(b1-4)GlcNAc(b1-3)Gal(b1-4)GlcNAc(b1-3)Gal(b1-4)GlcNAc(b1-3)Gal(b1-4)GlcNAc(b1-3)Gal(b1-4)GlcNAc(b1-3)Gal(b1-4)GlcNAc(b1-2)Man(a1-3)[Gal(b1-4)GlcNAc(b1-3)Gal(b1-4)GlcNAc(b1-3)Gal(b1-4)GlcNAc(b1-3)Gal(b1-4)GlcNAc(b1-3)Gal(b1-4)GlcNAc(b1-3)Gal(b1-4)GlcNAc(b1-2)Man(a1-6)]Man(b1-4)GlcNAc(b1-4)GlcNAc
# Method in brief: as §1
# [14] = target: Gal(b1-4)GlcNAc(b1-3)Gal(b1-4)GlcNAc(b1-3)GalNAc
# Method in brief: as §1
# [15] = target: Gal(b1-4)GlcNAc(b1-3)Gal(b1-4)GlcNAc(b1-3)[Gal(b1-4)GlcNAc(b1-3)Gal(b1-4)GlcNAc(b1-6)]GalNAc
# Method in brief: as §1
# [16] = target: Gal(b1-4)GlcNAc(b1-3)Gal(b1-4)GlcNAc(b1-6)[Gal(b1-3)]GalNAc
# Method in brief: as §1
# [17] = target: Gal(b1-4)GlcNAc(b1-3)Gal(b1-4)[Fuc(a1-3)]GlcNAc(b1-3)Gal(b1-4)[Fuc(a1-3)]GlcNAc
# Method in brief: as §1
# [18] = target: Gal(b1-4)GlcNAc(b1-3)GalNAc
# Method in brief: as §1
# [19] = target: Gal(b1-4)GlcNAc(b1-3)[Fuc(a1-3)GlcNAc(b1-6)]Gal(b1-4)Glc
# Method in brief: as §1
# [20] = target: Gal(b1-4)GlcNAc(b1-3)[Gal(b1-4)GlcNAc(b1-6)]Gal(b1-4)GlcNAc
# Method in brief: as §1
# [21] = target: Gal(b1-4)GlcNAc(b1-3)[GlcNAc(b1-6)]Gal(b1-4)GlcNAc
# Method in brief: as §1
# [22] = target: Gal(b1-4)GlcNAc(b1-6)Gal(b1-4)GlcNAc
# Method in brief: as §1
# [23] = target: Gal(b1-4)GlcNAc(b1-6)GalNAc
# Method in brief: as §1
# [24] = target: Gal(b1-4)GlcNAc(b1-6)[Gal(b1-3)]GalNAc
# Method in brief: as §1
# [25] = target: Gal(b1-4)GlcNAc(b1-6)[Gal(b1-4)GlcNAc(b1-3)]GalNAc
# Method in brief: as §1
# Gal(b1-4)GlcNAc6P = target: Gal(b1-4)GlcNAc6P
# Method in brief: as §1
# Gal(b1-6)Gal = target: Gal(b1-6)Gal
# Method in brief: as §1
# Gal3S(b1-3)GalNAc = target: Gal3S(b1-3)GalNAc
# Method in brief: as §1
# Gal3S(b1-3)GlcNAc = target: Gal3S(b1-3)GlcNAc
# Method in brief: as §1
# [26] = target: Gal3S(b1-3)[Fuc(a1-4)]GlcNAc
# Method in brief: as §1
binder,measurement,setting,value
B1,glycan array binding signal (z-score),[1],1.71
same,glycan array binding signal (z-score),[2],2.61
same,glycan array binding signal (z-score),[3],-0.304
same,glycan array binding signal (z-score),[4],2.24
same,glycan array binding signal (z-score),[5],1.26
same,glycan array binding signal (z-score),[6],-0.035
same,glycan array binding signal (z-score),[7],0.142
same,glycan array binding signal (z-score),[8],3.21
same,glycan array binding signal (z-score),[9],1.01
same,glycan array binding signal (z-score),[10],1.03
same,glycan array binding signal (z-score),[11],1.92
same,glycan array binding signal (z-score),[12],0.924
same,glycan array binding signal (z-score),[13],1.29
same,glycan array binding signal (z-score),[14],-0.223
same,glycan array binding signal (z-score),[15],1.22
same,glycan array binding signal (z-score),[16],-0.574
same,glycan array binding signal (z-score),[17],-0.131
same,glycan array binding signal (z-score),[18],-0.571
same,glycan array binding signal (z-score),[19],-0.847
same,glycan array binding signal (z-score),[20],-1.34
same,glycan array binding signal (z-score),[21],0.018
same,glycan array binding signal (z-score),[22],-0.242
same,glycan array binding signal (z-score),[23],-0.309
same,glycan array binding signal (z-score),[24],0.439
same,glycan array binding signal (z-score),[25],0.322
same,glycan array binding signal (z-score),Gal(b1-4)GlcNAc6P,0.178
same,glycan array binding signal (z-score),Gal(b1-6)Gal,-0.287
same,glycan array binding signal (z-score),Gal3S(b1-3)GalNAc,-0.03
same,glycan array binding signal (z-score),Gal3S(b1-3)GlcNAc,1.03
same,glycan array binding signal (z-score),[26],-0.195

# An excerpt of these results, with bars between the fields.
binder | measurement | setting | value
B1 | glycan array binding signal (z-score) | [9] | 1.01
same | glycan array binding signal (z-score) | [25] | 0.322
